These are yes or no findings as the source states them, for the method shown. Binding seen in cells or lysates may run through a third protein. Some results given as binding are weak or reduced against the parent protein; the word gives no strength.
Experiments:
Experiment in all cases: co-IP; protein extracts (0.2 mg) of HepG2 or Huh7 cells treated with siANCCA or siCtrl, incubated with anti-E2F2, anti-ERO1L or anti-G3BP2 antibody overnight at 4 °C, protein A/G-Sepharose, washed three times with lysis buffer (0.5% deoxycholate, 0.2% SDS, 1% Triton X-100, 5 mM EDTA); blot with ANCCA/PRO2000 antiserum
[1] = target: T1, endoplasmic reticulum oxidoreductin 1 (ERO1L) (human (endogenous in HepG2)) (UniProt Q96HE7)
T1 sequence: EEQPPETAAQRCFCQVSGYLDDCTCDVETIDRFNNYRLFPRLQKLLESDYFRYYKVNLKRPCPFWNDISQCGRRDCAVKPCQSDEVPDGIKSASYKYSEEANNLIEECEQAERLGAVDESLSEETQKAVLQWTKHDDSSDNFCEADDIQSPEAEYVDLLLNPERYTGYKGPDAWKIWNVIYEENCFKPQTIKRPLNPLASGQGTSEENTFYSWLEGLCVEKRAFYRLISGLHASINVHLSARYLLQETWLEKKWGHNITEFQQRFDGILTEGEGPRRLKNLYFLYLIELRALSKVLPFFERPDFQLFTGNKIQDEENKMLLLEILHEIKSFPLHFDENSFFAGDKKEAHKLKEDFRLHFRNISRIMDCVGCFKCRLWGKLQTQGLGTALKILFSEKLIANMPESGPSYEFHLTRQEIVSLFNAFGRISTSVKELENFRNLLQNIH

Amino acid sequences for entries named in this document (tags omitted).
UniProt Q14209: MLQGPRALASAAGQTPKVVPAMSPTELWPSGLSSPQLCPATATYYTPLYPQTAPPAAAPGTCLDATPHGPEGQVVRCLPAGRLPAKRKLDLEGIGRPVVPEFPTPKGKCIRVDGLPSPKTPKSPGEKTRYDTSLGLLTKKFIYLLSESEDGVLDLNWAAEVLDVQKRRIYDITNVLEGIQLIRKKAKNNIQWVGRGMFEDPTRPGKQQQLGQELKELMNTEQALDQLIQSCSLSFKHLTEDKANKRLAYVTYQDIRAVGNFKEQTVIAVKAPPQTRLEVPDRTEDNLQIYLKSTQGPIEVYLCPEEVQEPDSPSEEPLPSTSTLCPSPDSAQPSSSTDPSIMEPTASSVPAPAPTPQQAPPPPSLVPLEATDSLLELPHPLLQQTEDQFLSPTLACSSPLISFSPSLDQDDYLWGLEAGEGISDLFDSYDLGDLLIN

[2] = target: E2F2 (human (endogenous in HepG2 and Huh7)) (UniProt Q14209)
[3] = target: T2, Ras-GTPase-activating protein-SH3-domain-binding protein 2 (G3BP2) (human (endogenous in HepG2)) (UniProt Q9UN86)
T2 sequence: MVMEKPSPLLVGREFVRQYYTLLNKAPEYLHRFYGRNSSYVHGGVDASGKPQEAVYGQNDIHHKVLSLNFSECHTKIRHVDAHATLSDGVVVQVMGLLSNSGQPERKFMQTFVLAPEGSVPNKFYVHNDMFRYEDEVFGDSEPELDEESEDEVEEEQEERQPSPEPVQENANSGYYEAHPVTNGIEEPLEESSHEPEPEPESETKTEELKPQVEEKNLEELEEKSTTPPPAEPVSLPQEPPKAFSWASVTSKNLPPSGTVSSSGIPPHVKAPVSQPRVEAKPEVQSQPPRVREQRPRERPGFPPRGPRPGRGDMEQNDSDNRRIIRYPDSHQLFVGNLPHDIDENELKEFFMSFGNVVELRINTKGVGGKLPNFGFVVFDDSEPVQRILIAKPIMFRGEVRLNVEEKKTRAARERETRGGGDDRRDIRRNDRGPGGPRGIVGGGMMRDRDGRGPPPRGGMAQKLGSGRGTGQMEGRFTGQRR

Measured: binding

B1: AAA nuclear coregulator cancer-associated protein (ANCCA/PRO2000) (protein, UniProt Q6PL18 1-1390)
chain: MVVLRSSLELHNHSAASATGSLDLSSDFLSLEHIGRRRLRSAGAAQKKPAATTAKAGDGSSVKEVETYHRTRALRSLRKDAQNSSDSSFEKNVEITEQLANGRHFTRQLARQQADKKKEEHREDKVIPVTRSLRARNIVQSTEHLHEDNGDVEVRRSCRIRSRYSGVNQSMLFDKLITNTAEAVLQKMDDMKKMRRQRMRELEDLGVFNETEESNLNMYTRGKQKDIQRTDEETTDNQEGSVESSEEGEDQEHEDDGEDEDDEDDDDDDDDDDDDDDEDDEDEEDGEEENQKRYYLRQRKATVYYQAPLEKPRHQRKPNIFYSGPASPARPRYRLSSAGPRSPYCKRMNRRRHAIHSSDSTSSSSSEDEQHFERRRKRSRNRAINRCLPLNFRKDELKGIYKDRMKIGASLADVDPMQLDSSVRFDSVGGLSNHIAALKEMVVFPLLYPEVFEKFKIQPPRGCLFYGPPGTGKTLVARALANECSQGDKRVAFFMRKGADCLSKWVGESERQLRLLFDQAYQMRPSIIFFDEIDGLAPVRSSRQDQIHSSIVSTLLALMDGLDSRGEIVVIGATNRLDSIDPALRRPGRFDREFLFSLPDKEARKEILKIHTRDWNPKPLDTFLEELAENCVGYCGADIKSICAEAALCALRRRYPQIYTTSEKLQLDLSSINISAKDFEVAMQKMIPASQRAVTSPGQALSTVVKPLLQNTVDKILEALQRVFPHAEFRTNKTLDSDISCPLLESDLAYSDDDVPSVYENGLSQKSSHKAKDNFNFLHLNRNACYQPMSFRPRILIVGEPGFGQGSHLAPAVIHALEKFTVYTLDIPVLFGVSTTSPEETCAQVIREAKRTAPSIVYVPHIHVWWEIVGPTLKATFTTLLQNIPSFAPVLLLATSDKPHSALPEEVQELFIRDYGEIFNVQLPDKEERTKFFEDLILKQAAKPPISKKKAVLQALEVLPVAPPPEPRSLTAEEVKRLEEQEEDTFRELRIFLRNVTHRLAIDKRFRVFTKPVDPDEVPDYVTVIKQPMDLSSVISKIDLHKYLTVKDYLRDIDLICSNALEYNPDRDPGDRLIRHRACALRDTAYAIIKEELDEDFEQLCEEIQESRKKRGCSSSKYAPSYYHVMPKQNSTLVGDKRSDPEQNEKLKTPSTPVACSTPAQLKRKIRKKSNWYLGTIKKRRKISQAKDDSQNAIDHKIESDTEETQDTSVDHNETGNTGESSVEENEKQQNASESKLELRNNSNTCNIENELEDSRKTTACTELRDKIACNGDASSSQIIHISDENEGKEMCVLRMTRARRSQVEQQQLITVEKALAILSQPTPSLVVDHERLKNLLKTVVKKSQNYNIFQLENLYAVISQCIYRHRKDHDKTSLIQKMEQEVENFSCSR
binds: all assays above

From publication PMC4945746
